Reference: PubChem BioAssay AID588590 (National Center for Advancing Translational Sciences (NCATS), 2011)
What follows is the remainder of the data, with few or none of the hits. Results filed as inconclusive are left out. Activity calls are given as the source filed them. Calls follow the shape of the dose curve; as a rule, active = well fitted inhibition curve with a large enough effect; inconclusive = small, poorly fitted or top-dose-only effect, or another doubt; inactive = no such curve, though single readings can be large or run the other way.

Protein sequences, listed by entry. Tags and fused reporters are not part of them. Lines headed by an entry give the natural chain unless they say otherwise; changes in a name come on top.
UniProt Q9UNA4: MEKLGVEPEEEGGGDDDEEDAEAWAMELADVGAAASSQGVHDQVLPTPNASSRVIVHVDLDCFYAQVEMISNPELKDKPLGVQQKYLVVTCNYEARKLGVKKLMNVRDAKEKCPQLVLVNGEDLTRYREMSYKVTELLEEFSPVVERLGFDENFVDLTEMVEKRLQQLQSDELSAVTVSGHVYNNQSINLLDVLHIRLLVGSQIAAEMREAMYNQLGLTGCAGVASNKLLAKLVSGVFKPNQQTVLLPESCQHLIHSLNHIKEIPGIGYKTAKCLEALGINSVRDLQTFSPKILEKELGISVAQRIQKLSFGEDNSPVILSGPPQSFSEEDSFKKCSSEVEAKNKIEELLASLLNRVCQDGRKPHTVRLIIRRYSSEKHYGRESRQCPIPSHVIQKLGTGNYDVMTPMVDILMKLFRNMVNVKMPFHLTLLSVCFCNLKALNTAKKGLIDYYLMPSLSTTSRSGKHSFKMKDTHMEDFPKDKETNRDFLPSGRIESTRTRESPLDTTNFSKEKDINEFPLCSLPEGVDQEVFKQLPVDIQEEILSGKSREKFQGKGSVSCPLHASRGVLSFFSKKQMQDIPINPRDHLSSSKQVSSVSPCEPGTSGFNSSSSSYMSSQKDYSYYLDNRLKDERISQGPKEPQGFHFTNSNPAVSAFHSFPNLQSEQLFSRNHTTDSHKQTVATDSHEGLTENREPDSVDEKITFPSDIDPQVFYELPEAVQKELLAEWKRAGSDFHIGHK

These compounds were tested against DNA polymerase iota (Homo sapiens) (UniProt Q9UNA4) (assay: qHTS for Inhibitors of Polymerase Iota). Conditions: Pol iota fluorescent replication assay, 10 min; at 115 µM (top of the series).
Description: DNA polymerases, such as Pol iota, are specifically involved in DNA repair. Pol iota specifically plays an important role in translesion synthesis, where the normal high-fidelity DNA polymerases cannot proceed and DNA synthesis stalls. […] Thus, while pol eta's (and most likely iota's) normal function is to protect humans against the deleterious consequences of DNA damage, under certain conditions they can have deleterious effects on human health. As a consequence, we propose to utilize a high throughput replication assay to identify small molecule inhibitors of pol iota.
In a collaboration between the National Institute of Child Health & Human Development (NICHD) and NIH Chemical Genomics Center, a high-throughput, fluorescent screen was developed to screen the NIH Molecular Libraries Small Molecule Repository (MLSMR). This screen is used to identify inhibitors of pol iota.
NIH Chemical Genomics Center [NCGC]
NIH Molecular Libraries Probe Centers Network [MLPCN]
Assay Submitter (PI): Roger Woodgate, NICHD)
Three microliters of reagents (buffer in column 3 and 4 as negative control and 10 nM Pol iota in columns 1, 2, and 5-48) will be dispensed into 1,536-well black solid-bottomed plate. Compounds (23 nL) will be transferred via Kalypsys pin tool equipped with 1536-pin array. The plates will then be incubated for 15 min at room temperature, and 1 µL substrate (50 nM final concentration) will be added to start the reaction and kinetically read twice at 0 min and 10 min on the Viewlux reader.

activity, negative = inhibition, inactive:
O=C(C=Cc1ccccc1)Nc1ccccc1 74.2%, CNC1CCc2cc(OC)c(OC)c(OC)c2-c2ccc(SC)c(=O)cc21 (centres undefined) 17.1%, Cc1cc(=O)oc2cc(OCc3ccccc3)ccc12 91.7%, CS(=O)(=O)Nc1cccc2[nH]ncc12 68.1%
